For the assay, the target named is T1, A-Kinase Anchoring Protein-1 (AKAP1) (human (endogenous in HCT116)) (UniProt Q92667).
T1 sequence: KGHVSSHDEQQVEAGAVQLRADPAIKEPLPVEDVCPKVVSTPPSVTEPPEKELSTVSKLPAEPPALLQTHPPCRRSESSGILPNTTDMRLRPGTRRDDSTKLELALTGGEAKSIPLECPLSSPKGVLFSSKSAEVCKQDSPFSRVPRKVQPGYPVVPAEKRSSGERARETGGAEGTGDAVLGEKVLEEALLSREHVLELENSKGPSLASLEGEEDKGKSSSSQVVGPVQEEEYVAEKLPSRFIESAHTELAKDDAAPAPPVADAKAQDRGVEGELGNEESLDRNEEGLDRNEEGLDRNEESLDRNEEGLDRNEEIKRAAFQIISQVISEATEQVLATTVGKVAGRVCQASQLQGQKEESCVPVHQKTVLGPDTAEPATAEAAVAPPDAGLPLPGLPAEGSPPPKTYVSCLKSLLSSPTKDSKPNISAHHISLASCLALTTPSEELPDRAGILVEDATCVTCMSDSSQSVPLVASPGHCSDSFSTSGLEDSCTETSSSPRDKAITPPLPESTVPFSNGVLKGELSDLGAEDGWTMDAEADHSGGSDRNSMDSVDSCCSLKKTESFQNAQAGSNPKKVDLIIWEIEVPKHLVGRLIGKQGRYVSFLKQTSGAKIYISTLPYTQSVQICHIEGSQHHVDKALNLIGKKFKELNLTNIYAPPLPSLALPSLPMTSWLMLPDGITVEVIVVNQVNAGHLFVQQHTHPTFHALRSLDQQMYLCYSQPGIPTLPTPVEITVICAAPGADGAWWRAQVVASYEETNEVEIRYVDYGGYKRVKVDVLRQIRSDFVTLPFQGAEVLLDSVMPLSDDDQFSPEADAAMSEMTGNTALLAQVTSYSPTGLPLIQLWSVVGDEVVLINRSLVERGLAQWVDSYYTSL
As to the kind of experiment: co-IP; HCT116 lysate in RIPA buffer; 1 mg of proteins on magnetic beads coupled or not with 5 µg of AKAP1 antibody; 16 h at 4 °C; AKAP1 and LARP4 revealed by Western blot. (Immunoblotting shows a protein as a band on a membrane.)

Amino acid sequences for entries named in this document (tags omitted).
UniProt Q71RC2: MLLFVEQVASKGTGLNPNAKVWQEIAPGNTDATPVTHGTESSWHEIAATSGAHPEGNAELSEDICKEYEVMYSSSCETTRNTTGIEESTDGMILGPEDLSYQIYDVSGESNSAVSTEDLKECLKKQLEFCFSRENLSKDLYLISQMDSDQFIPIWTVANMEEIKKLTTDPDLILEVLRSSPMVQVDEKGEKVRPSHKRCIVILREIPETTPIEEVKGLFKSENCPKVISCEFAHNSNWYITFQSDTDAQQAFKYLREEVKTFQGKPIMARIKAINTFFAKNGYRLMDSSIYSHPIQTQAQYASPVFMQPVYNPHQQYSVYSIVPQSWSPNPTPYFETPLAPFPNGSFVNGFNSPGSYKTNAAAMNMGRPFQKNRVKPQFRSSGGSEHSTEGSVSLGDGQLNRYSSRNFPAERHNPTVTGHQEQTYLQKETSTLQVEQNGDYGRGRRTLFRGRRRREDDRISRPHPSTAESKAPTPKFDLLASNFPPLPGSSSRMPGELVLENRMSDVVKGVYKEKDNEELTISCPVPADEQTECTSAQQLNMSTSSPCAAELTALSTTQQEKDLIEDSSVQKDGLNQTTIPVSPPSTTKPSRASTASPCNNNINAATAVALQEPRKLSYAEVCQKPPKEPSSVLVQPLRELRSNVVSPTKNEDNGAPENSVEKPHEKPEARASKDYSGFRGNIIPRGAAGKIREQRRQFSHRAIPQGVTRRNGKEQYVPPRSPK

These are yes or no findings as the source states them, for the method shown. In cells and extracts the contact can be indirect. Some results given as binding are weak or reduced against the parent protein; the word gives no strength.

Consider “La Ribonucleoprotein 4 (LARP4) (from UniProt Q71RC2 1-724)”, for which the binding entry was “binds”.
